Results taken from patent publication US10004828B2, “Self-assembled Fmoc-ff hydrogels” (Romat at Tel-Aviv University Ltd., priority 2005, dated 2018).
Where a SMILES comes first, the peptide text is derived from it. The star is where a group is joined. Fmoc = O=C(OCC1c2ccccc2-c2ccccc21)*

Assay: Fluorescent molecule encapsulation and release from the hydrogel

Compound	release of encapsulated fluorescent molecule from the gel into covering water (Fmoc-diphenylalanine hydrogel formed with 50 μM fluorescent molecule, 1.5 ml water on top)	size of particles retained within the hydrogel cavities [kDA]
Insulin-FITC: fluorescent Insulin-FITC, molecular mass of 5733 Da, encapsulated in the gel [reference compound]	retained in the gel	–
O=C(N[C@@H](Cc1ccccc1)C(=O)N[C@@H](Cc1ccccc1)C(=O)O)OCC1c2ccccc2-c2ccccc21 [Fmoc-Phe-Phe, Fmoc-diphenylalanine] (Fmoc-Phe-Phe-OH)	–	≥ 5
